## Screening data, single-dose tests

Chains of the proteins cited; added tags and fusions are not shown. Residues count along the entry.
UniProt P9WPC5, whole entry: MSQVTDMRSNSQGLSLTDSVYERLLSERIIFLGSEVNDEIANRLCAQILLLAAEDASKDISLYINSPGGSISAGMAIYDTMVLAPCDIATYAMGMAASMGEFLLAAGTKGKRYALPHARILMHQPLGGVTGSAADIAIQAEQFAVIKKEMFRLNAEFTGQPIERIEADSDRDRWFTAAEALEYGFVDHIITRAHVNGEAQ
UniProt P9WPC3, whole entry partner: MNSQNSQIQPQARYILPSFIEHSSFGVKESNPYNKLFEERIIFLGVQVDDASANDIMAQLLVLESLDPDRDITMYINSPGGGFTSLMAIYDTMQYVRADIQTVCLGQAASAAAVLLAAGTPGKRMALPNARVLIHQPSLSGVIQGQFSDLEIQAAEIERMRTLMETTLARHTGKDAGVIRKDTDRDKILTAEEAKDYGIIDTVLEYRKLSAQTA
UniProt P9WNZ1, whole entry: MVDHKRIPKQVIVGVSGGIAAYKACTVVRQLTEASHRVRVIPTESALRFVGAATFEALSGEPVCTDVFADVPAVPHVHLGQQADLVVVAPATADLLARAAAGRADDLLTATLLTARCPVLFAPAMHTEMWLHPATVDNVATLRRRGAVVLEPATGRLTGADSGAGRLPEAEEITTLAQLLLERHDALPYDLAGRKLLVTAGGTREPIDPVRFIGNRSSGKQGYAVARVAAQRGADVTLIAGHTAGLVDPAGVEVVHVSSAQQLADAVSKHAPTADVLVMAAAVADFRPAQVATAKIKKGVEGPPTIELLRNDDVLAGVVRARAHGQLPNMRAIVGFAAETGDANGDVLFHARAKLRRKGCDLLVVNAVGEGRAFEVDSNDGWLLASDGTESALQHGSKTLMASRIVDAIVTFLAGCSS
UniProt Q8IDJ8, 1-583: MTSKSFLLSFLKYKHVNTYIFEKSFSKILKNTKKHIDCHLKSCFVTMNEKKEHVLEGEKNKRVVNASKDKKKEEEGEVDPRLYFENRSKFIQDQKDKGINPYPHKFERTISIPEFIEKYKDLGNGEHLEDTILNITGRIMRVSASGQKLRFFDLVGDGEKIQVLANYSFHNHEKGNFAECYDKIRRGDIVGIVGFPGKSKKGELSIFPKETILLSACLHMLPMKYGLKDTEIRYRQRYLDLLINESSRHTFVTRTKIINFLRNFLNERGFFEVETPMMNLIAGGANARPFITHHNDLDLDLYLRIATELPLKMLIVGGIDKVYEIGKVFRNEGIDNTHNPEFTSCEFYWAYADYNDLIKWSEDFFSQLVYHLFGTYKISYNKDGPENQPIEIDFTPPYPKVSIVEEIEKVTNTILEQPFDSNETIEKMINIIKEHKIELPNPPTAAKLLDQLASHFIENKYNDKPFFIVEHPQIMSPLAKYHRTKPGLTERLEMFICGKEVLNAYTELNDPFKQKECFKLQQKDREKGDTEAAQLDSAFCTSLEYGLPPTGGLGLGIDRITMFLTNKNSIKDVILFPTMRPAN
UniProt Q4DA54, 1-478: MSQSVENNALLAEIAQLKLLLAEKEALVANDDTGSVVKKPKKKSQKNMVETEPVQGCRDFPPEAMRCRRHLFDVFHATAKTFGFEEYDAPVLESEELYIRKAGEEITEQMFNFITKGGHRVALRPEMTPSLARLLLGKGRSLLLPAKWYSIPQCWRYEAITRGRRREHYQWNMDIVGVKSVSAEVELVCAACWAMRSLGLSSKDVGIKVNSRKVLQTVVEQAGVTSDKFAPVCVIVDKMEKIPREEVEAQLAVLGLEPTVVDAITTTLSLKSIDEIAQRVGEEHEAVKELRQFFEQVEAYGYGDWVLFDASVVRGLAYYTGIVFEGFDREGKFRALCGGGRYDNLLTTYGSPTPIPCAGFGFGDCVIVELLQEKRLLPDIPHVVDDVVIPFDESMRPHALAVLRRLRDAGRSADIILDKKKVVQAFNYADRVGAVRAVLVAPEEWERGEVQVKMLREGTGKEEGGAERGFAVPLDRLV
UniProt I6X8D2, whole entry: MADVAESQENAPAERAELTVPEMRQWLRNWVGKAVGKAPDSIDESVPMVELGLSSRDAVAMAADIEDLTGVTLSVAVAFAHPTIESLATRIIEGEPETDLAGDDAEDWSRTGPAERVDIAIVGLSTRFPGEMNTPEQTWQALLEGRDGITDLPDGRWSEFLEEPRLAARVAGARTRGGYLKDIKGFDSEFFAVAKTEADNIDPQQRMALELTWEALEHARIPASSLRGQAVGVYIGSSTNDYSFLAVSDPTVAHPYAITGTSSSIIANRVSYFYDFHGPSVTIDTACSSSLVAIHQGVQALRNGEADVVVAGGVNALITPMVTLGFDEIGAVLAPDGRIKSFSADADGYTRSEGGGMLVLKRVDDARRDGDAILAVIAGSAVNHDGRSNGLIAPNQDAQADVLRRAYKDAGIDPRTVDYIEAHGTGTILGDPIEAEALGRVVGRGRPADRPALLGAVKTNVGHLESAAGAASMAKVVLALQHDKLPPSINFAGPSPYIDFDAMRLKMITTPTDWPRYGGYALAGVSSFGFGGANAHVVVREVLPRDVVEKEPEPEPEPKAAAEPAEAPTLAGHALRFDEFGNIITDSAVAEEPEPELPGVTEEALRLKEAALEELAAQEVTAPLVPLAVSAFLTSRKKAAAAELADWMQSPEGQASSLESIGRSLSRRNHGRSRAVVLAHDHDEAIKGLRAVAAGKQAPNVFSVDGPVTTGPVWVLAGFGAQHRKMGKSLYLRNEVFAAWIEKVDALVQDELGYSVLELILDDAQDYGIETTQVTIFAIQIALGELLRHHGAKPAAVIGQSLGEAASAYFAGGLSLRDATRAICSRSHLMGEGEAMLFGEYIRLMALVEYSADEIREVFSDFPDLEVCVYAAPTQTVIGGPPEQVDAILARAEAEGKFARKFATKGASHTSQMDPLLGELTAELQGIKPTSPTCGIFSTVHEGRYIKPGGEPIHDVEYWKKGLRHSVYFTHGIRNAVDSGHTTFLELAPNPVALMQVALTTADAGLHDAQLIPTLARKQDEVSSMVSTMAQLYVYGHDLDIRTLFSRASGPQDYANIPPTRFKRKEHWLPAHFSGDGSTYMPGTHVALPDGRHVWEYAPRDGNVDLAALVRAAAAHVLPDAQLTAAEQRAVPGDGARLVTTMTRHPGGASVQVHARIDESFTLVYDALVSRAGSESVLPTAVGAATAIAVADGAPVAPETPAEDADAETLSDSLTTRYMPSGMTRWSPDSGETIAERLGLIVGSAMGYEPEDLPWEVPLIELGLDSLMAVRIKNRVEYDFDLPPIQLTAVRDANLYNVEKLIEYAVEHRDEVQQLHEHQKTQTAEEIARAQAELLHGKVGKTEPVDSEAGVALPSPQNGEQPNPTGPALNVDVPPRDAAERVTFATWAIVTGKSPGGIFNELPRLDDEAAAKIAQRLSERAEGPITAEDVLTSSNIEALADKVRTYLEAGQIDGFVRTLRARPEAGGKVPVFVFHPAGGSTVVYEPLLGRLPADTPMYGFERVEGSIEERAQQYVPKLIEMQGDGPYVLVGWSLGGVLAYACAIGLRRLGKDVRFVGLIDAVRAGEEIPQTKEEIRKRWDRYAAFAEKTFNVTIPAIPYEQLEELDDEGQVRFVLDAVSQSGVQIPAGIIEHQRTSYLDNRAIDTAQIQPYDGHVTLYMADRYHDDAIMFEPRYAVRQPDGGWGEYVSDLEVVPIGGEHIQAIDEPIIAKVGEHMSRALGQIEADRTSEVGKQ

From ChEMBL document CHEMBL3988442, “University of Dundee, Small-Polar-MMV Screening Library” (2021).

A: 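Protease assay of ClpP1P2, read by the AMC dye that it sets free. Target: ClpP1P2, Mycobacterium tuberculosis (UniProt P9WPC5 and UniProt P9WPC3). Tested at 50 µM. Direction is inferred from only a few compounds that gave an IC50; most scored high, so higher reads as stronger inhibition. Most other retested compounds had strongly negative values. About 69,000 compounds were tested under these conditions; 0.015% (about 10) showed 50% or more at least once.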
B: 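Enzyme assay of CoaBC with a phosphate dye (Biomol Green) read at 650 nm. Target: Coenzyme A biosynthesis protein CoaBC, Mycobacterium tuberculosis (UniProt P9WNZ1). Concentration: 30 µM. Higher reads as stronger inhibition, judged from the few compounds that gave an IC50. Most strong results did not repeat in a second test. Size under these conditions: about 67,000 compounds, about 40 of them at 50% or above in at least one test.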
C: 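Enzyme assay of the cytosolic lysyl-tRNA synthetase in 384-well plates, read by luminescence. Target: Lysine-tRNA ligase, Plasmodium falciparum 3D7 (UniProt Q8IDJ8). Compounds at 30 µM. Higher reads as stronger inhibition, judged from the few compounds that gave an IC50. Size under these conditions: about 69,000 compounds, about 49 of them at 50% or above in at least one test.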
D: 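Histidine-tRNA ligase, Trypanosoma cruzi CL Brener (UniProt Q4DA54). Enzyme assay of histidyl-tRNA synthetase; the read-out is not stated. Compounds at 30 µM. Direction is inferred from retests: higher values go with stronger inhibition. Of about 69,000 compounds tested this way, about 31 (0.045%) reached 50% or more in at least one test.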
E: 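Polyketide synthase Pks13, Mycobacterium tuberculosis (UniProt I6X8D2). Enzyme assay of the thioesterase domain of polyketide synthase 13; the read-out is not stated. Concentration: 30 µM. Higher reads as stronger inhibition (inferred from which compounds were picked for retests). About 67,000 compounds were tested under these conditions; 0.46% (about 300) showed 50% or more at least once.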

The filed quantity is “Percent Effect” (%). The controls that fix the scale are not given in the record; negative values are as filed. Compounds were drawn at random from those tested, without regard to their results. Two or more numbers in one place are separate tests of the same structure; such repeats can differ widely.

- COCCNC(=O)c1cc(C)nc(C2CCN(C)CC2)n1 : A: -0.2646%; B: 4.988%; C: 2.179%; D: 6.923%; E: 7.425%
- O=C(NCC1CCCOC1)c1ccc(-c2ccccc2)[nH]c1=O (configuration not stated) : A: -13.35%; B: 13.16%; C: -2.635%; D: 4.07%; E: 11.34%
- Cn1cnc(S(=O)(=O)NCC2(O)CCc3ccccc32)c1 (configuration not stated) : A: -4.673%; B: -8.824%; C: 0.1603%; D: 5.556%; E: 4.631%
- Cc1cc(C(=O)N2CCNC(c3ccccc3)C2)c2ccc(F)cc2n1 (configuration not stated) : A: -3.761%; B: 9.421%; C: 1.426%; D: 14%; E: -15.23%
- Cc1nc(C)n(CC2CCCN2Cc2nc3ccccc3s2)n1 (configuration not stated) : A: -24.02%; B: -5.98%; C: 1.89%; D: 7.324%; E: -3.644%
- O=C(C1CC=CC1)N1CCc2ncnc(-c3ccncc3)c2CC1 : A: -11.06%; B: 4.194%; C: 2.47%; D: 0.4975%
- Cn1ccnc1CN1CCN(CC(=O)NCC(F)(F)F)CC1 : A: 2.947%; B: -0.1186%; C: 4.431%; D: 1.504%; E: -4.28%
- CN(C)CC(=O)N1Cc2cc(-c3cc[nH]n3)ccc2C1c1cnco1 (configuration not stated) : A: 5.054%; C: 6.411%; D: 1.266%; E: -29.67%
- COc1c(C)cc(CNCc2ccnc(N3CCOCC3)c2)cc1C : A: -0.793%; B: 29.17% & 12.89%; C: 4.324%; D: 6.977%; E: 2.956%
- Cc1ccccc1OCCC(=O)N1CCCC(n2cncn2)C1 (configuration not stated) : A: 8.198%; B: 4.145%; C: -2.485%; D: 4.58%; E: -11.45%
- O=C1CN(Cc2nnc(-c3ccc(Br)o3)o2)CCN1 : A: 1.31%; B: -3.797%; C: 1.982%; D: 0.813%; E: 0.7417%
- CCCn1ncc(-c2ccnc(NC3CC(C)(C)NC(C)(C)C3)n2)c1C : A: -7.322%; B: -38.03%; C: 0.186%; D: 3.784%; E: 33.74%
- COC(=O)c1cccc(S(=O)(=O)NCc2cccnc2N(C)C)c1 : A: -8.964%; B: 1.312%; C: 0.5656%; D: 6.857%; E: 0.6265%
- O=C(c1cccnc1)N1CCOCC2(CCN(c3ncccn3)C2)C1 (configuration not stated) : A: -14.05%; B: -0.4938%; C: -1.621%; D: 0.9346%; E: -10.89%
- COc1ccc(-n2nc(C(C)=O)c(C(C)=O)c2C)cc1Cl : A: -19.06%; B: -2.594%; C: -2.2%; D: 3.093%; E: 14.63%
- O=C(Nc1ccccc1CCO)c1cccc(CN2CC[C@H](O)C2)c1 : A: -20.36%; B: 3.851%; C: 4.261%; D: 2.899%; E: -15.52%
- COc1ccccc1C(O)CNC(=O)NCc1cc[nH]n1 (configuration not stated) : A: -27.8%; B: -1.818%; C: -0.8155%; D: 4.611%; E: -0.4424%
- C[C@@H]1CN(Cc2nnc(-c3cccnc3)o2)CC[C@]1(C)O : A: 5.553%; B: 2.521%; C: -0.6413%; D: 4.444%; E: 6.928%
- COc1ccc(CN(C)[C@@H]2CN(C(=O)c3ccnn3C)C[C@H]2O)cc1 : A: -4.598%; B: -0.2451%; C: 2.901%; D: 5.319%; E: -4.139%
- CCCC(O)CN1CC(C)(C)CN(C(=O)CCc2ccccc2)CC1=O (configuration not stated) : A: 12.18%; B: -1.695%; C: 3.801%; D: 5.618%; E: -17.53%
- O=C(NCC1CCOC1)c1cc(-c2ccc(F)cc2)[nH]n1 (configuration not stated) : A: -2.074%; B: 0.3686%; C: 0.4778%; D: 8.333%; E: 7.547%

2 of the entries, repeated:

| Compound | A | B | C | D | E |
|---|---|---|---|---|---|
| `O=C(c1cccnc1)N1CCOCC2(CCN(c3ncccn3)C2)C1` (configuration not stated) | -14.05 | -0.4938 | -1.621 | 0.9346 | -10.89 |
| `CCCC(O)CN1CC(C)(C)CN(C(=O)CCc2ccccc2)CC1=O` (configuration not stated) | 12.18 | -1.695 | 3.801 | 5.618 | -17.53 |